In paper PMC10722681, “RGCC-mediated PLK1 activity drives breast cancer lung metastasis by phosphorylating AMPKα2 to activate oxidative phosphorylation and fatty acid oxidation” (Journal of Experimental & Clinical Cancer Research : CR, 2023):
No constants are given. Whether binding was seen depends on the method and setting. For some of these results: Binding seen in cells or lysates may run through a third protein. Some entries that bind do so weakly or less than the wild type. For some of these results: Where a sequence is shown, tags or fusion partners need not be part of it.

The chains behind the UniProt entries cited, without tags or fusion partners. Where a name states a change or a piece, a line headed by the entry shows the natural chain unless it says otherwise.
UniProt P53350: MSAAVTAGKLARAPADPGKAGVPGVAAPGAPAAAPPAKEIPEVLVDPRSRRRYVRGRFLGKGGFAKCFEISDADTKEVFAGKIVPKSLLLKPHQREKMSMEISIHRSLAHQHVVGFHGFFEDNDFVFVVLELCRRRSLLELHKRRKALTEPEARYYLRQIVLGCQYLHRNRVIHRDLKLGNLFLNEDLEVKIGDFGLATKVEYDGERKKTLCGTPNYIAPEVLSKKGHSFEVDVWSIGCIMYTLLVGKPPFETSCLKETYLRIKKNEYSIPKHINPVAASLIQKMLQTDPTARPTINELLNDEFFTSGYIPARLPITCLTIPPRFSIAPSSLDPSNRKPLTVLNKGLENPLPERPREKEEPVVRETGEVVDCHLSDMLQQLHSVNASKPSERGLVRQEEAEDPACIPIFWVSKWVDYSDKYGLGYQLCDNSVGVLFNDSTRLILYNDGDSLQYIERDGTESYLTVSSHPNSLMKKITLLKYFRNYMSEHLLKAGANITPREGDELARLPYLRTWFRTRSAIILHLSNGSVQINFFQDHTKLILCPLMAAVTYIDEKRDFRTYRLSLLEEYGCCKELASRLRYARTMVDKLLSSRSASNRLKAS
UniProt Q07832: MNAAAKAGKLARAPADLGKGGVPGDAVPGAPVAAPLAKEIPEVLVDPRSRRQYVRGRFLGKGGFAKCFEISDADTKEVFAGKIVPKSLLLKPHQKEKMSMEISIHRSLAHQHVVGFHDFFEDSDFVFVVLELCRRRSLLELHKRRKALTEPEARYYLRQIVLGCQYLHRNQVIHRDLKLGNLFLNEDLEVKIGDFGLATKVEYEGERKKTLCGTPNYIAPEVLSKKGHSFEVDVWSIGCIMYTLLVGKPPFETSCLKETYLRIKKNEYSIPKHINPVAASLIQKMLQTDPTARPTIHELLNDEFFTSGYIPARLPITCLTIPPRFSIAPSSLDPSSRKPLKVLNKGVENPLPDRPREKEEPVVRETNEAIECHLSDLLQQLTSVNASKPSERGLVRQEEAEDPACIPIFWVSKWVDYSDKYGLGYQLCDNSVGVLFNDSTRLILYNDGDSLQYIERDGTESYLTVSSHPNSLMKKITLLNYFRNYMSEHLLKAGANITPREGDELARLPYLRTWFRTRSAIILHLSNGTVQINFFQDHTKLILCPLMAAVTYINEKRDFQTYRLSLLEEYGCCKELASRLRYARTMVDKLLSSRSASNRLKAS

Legend:
[1] = target: T1, Response gene to complement 32 protein (RGCC) (human (endogenous in MDA-MB-231/LM3)) (UniProt Q9H4X1); experiment: co-IP; endogenous proteins; NP40 lysate; magnetic protein A/G beads; anti-RGCC or anti-PLK1 for precipitation; western blot
T1 sequence: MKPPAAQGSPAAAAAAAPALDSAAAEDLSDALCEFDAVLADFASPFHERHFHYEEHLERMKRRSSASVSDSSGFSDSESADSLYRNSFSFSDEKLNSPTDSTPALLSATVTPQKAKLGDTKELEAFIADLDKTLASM

HA-RGCC = target: T2, HA-RGCC (UniProt Q9H4X1); experiment: co-IP; HA-RGCC and FLAG-PLK1 truncation fragments in 293T cells
T2 sequence: T1 sequence

GST-RGCC = target: T3, GST-RGCC (UniProt Q9H4X1); experiment: pull-down; purified GST-RGCC (or GST) incubated with recombinant HA-PLK1 4 h at 4 °C, then glutathione-Sepharose 4B beads 2 h at 4 °C; washed in NP-40 buffer (50 mM Tris-HCl pH 7.4, 1% NP-40, 150 mM NaCl, 2 mM EDTA, 1 mM DTT, 10% glycerol); western blot; both purified
T3 sequence: T1 sequence

[2] = target: T4, RGCC (4T1/LM3 cells) (mouse (endogenous in 4T1/LM3)) (UniProt Q9DBX1); experiment: co-IP; endogenous proteins; NP40 lysate; magnetic protein A/G beads; anti-RGCC or anti-PLK1 for precipitation; western blot
T4 sequence: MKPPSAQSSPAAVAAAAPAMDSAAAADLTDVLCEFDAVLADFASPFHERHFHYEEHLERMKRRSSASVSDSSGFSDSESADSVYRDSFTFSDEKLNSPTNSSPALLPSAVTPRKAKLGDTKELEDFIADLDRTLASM

Row | binding (HA-RGCC) | Substance | further results
1 |  | PLK1 (from UniProt P53350 1-603) | binding [1]: binds
2 | binds | FLAG-PLK1 (341–490) (from UniProt P53350 341-490) (domain or fragment) | 
3 |  | HA-PLK1 (from UniProt P53350 1-603) | binding (GST-RGCC): binds
4 |  | PLK1 (4T1/LM3 cells) (from UniProt Q07832 1-603) | binding [2]: binds
5 | binds weakly | FLAG-PLK1 (491–603) (from UniProt P53350 491-603) (domain or fragment) | 
6 | binds weakly | FLAG-PLK1 (231–340) (from UniProt P53350 231-340) (domain or fragment) | 
7 | binds | FLAG-PLK1 (1–190) (from UniProt P53350 1-190) (domain or fragment) | 
